Our source for the cell number change and AC50 values is PubChem BioAssay AID2685 (National Center for Advancing Translational Sciences (NCATS), 2010).

The other results are listed elsewhere or left out. Further columns of the screen follow, without active or inactive calls. Compounds called inactive in the main read-out are mostly missing here. Potencies come from curve fits of mixed quality, noted in brackets.

The experiment in a line: qHTS Assay for Lipid Storage Modulators in Drosophila S3 Cells.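 On cell number change: cells counted by Cell Tracker Red CMTPX staining in the red channel.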 The note with it: BODIPY lipid droplet fluorescence, 18-24 h; for cell number change: measured here: cell count max response, cells fed with added oleic acid. In short, it runs like this:
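Laser-scanning cytometry quantifies lipid droplet accumulation (500–530 nm total intensity; droplet/cell object ratio) in oleic acid-fed (400 uM added) Drosophila S3 cells treated with a concentration series. 20 uM Triacsin C defined 100% inhibition.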

Setting [1] is: measured here: lipid fluorescence (Fed channel) AC50, cells fed with added oleic acid.
Where [2] appears, read: measured here: cell number channel AC50, cells fed with added oleic acid.

For the compound `CC(=O)c1cccc(OCc2cc(C(=O)N(C)CCC3CCOCC3)no2)c1`, the cell number change was -19.3%. Also, the AC50 under setting [1] was 4.61 µM [rising, partial curve, poor fit]. For `COc1ccc(Cl)cc1-n1c(C)cc(C(=O)OCC(=O)N2CC(=O)Nc3ccccc32)c1C`, the cell number change came out at 20%. Besides, the AC50 under setting [1] is 6.51 µM [rising, full curve].

Take `CCn1cc(C(=O)OC(C)C(=O)Nc2c(C)n(C)n(-c3ccccc3)c2=O)c(=O)c2ccc(C)nc21` (centres undefined): the cell number change worked out at 48.1%. The AC50 under setting [2] is 23.1 µM [rising, single point]. In addition, the AC50 under setting [1] was 11.6 µM [rising, single point]. As to `Cc1ccc(C(C)(O)CS(=O)(=O)Cc2ccccc2Cl)cc1` (centres undefined), the cell number change is 52.3%.

As for `CCOC(=O)c1c(C)[nH]c(C)c1C(=O)COC(=O)c1ccc(Cl)c(S(=O)(=O)NCc2ccccc2)c1`, the AC50 runs as follows: under setting [2], 0.164 µM [rising, full curve, poor fit]; under setting [1], 0.411 µM [rising, full curve]. For the compound `O=C(Nc1cc(Cl)ccc1F)C1=COCCO1`, the cell number change was found to be 38.2%. In addition, under setting [2], the AC50 was 14.6 µM [rising, single point]. Regarding `CCOC(=O)COn1c(=O)c(-c2ccco2)[n+]([O-])c2ccccc21`, the cell number change was -33.1%. As for `Cc1ccc(S(=O)(=O)NCCc2ccc(S(N)(=O)=O)cc2)cc1`, the AC50 is, setting by setting: under setting [2], 0.651 µM [rising, single point]; under setting [1], 0.517 µM [rising, single point]. With `CC(C)(C)c1ccc(OCc2ccc(C(=O)N/N=C/c3ccc(O)c(O)c3)cc2)cc1`, the cell number change was -49.5%. Under setting [2], the AC50 is 0.00517 µM [falling, full curve, poor fit]. In the case of `O=C(Nc1ccc2c(c1)OCO2)N1CCC(CO)(CC2CCCCO2)CC1` (centres undefined), the cell number change is -11.7%. In addition, the AC50 under setting [2] is 0.00651 µM [falling, full curve, poor fit]. With `Cc1cc(=O)[nH]c(SCC(=O)Nc2ccccc2C#N)c1C#N`, the AC50 is 0.206 µM [falling, full curve, poor fit] under setting [2] and 0.184 µM [falling, full curve, poor fit] under setting [1]. In the case of `CC(=O)Nc1ccc(C2=NN(CC#N)C(=O)SC2)cc1`, the cell number change came to 14%. In addition, the concentration at half-maximal activity (AC50) under setting [2] is 6.51 µM [rising, partial curve, poor fit]. `Nc1nnc(SCC(=O)c2ccc3ccccc3c2)s1`: the cell number change was determined as 59.2%. For the same compound, under setting [2], the AC50 was 6.51 µM [rising, partial curve, poor fit]. Besides, under setting [1], the AC50 is 0.058 µM [rising, full curve]. As for `COc1ccc(C(=O)CNc2ccccc2C#N)cc1`, the cell number change came to 0.198%. Still for that read-out and setting: for `CCCN(CC1CC1)C(=O)COC(=O)c1ccc(CNS(=O)(=O)c2ccc(F)c(Cl)c2)cc1` the value was 13.9%. As to `COCCCNC(=S)Nc1ccc(OC(F)F)cc1C`, the AC50 under setting [1] was 5.62 µM [rising, single point]. As to `CCOC(=O)c1ccc(NC(=O)CSc2nc3c(c(=O)n2CC)SC(C)C3)cc1` (centres undefined), the cell number change is -41.4%. Also, the AC50 under setting [1] was 1.64 µM [rising, partial curve]. Take `O=C(NC1CCCC1)C1CC(=O)N(C2CCCCCCC2)C1` (centres undefined): the cell number change stood at 10.1%. Also, the AC50 under setting [2] is 0.00411 µM [rising, full curve, poor fit].

In the case of `COc1cccc(/C=N/NC(=O)CSc2nnc(C)n2-c2ccccc2)c1OC`, the cell number change was -7.97%. Under setting [1], the AC50 was 20.6 µM [falling, single point].

Regarding `O=c1cc(-c2ccccc2)c2ccccc2[nH]1`, the cell number change was 15.3%. The AC50 under setting [1] was 20.6 µM [rising, partial curve]. As to `COc1ccc(CNC(=O)C(c2ccc(C)o2)N(Cc2cccs2)C(=O)Cc2cccs2)cc1` (centres undefined), the cell number change is -22.6%. Also, under setting [1], the AC50 is 14.6 µM [falling, partial curve]. `CC1(C)CC(=O)C/C(=N\NC(=O)C2C3CCCCC32)C1` (centres undefined): the cell number change came out at 28.6%. Moreover, the half-maximal activity concentration (AC50) under setting [1] is 0.00461 µM [rising, full curve, poor fit]. With `COc1cc(/C=C(\C#N)c2ccccn2)ccc1OCc1ccccc1Cl`, the cell number change was -22%. Under setting [1], the concentration at half-maximal activity (AC50) was 18.4 µM [falling, single point]. As for `O=C(COc1ccc(F)cc1Cl)Nc1nc(-c2ccccn2)cs1`, the cell number change came to 23.5%. Besides, under setting [2], the half-maximal activity concentration (AC50) is 6.51 µM [rising, single point]. Turning to `Cc1cc(NC(=O)Nc2c[nH]c(=O)[nH]c2=O)ccc1Br`, the cell number change was 70.8%. Under setting [2], the AC50 was 29.1 µM [rising, single point]. In addition, the AC50 under setting [1] is 0.82 µM [falling, full curve]. In the case of `Cc1cc(C)nc(NS(=O)(=O)c2ccc(NC(=O)c3cccs3)cc2)n1`, the cell number change is -15.5%. Consider `Cc1ccc(S(=O)(=O)N(CC(=O)N/N=C/c2cccc3c2OCCO3)c2ccccc2F)cc1`, for which the cell number change was 68.2%. The AC50 under setting [2] is 2.31 µM [rising, full curve]. Moreover, the AC50 under setting [1] is 3.26 µM [rising, partial curve]. For `COc1cccc(NC(=O)CN(C)C(=O)C(CCSC)NC(=O)c2ccco2)c1` (centres undefined), the cell number change was -0.735%. Under setting [1], the AC50 was 0.00411 µM [falling, full curve, poor fit]. Consider `CC(=O)OCC1=C(C(=O)O)N2C(=O)C(NC(=O)C(C)Cn3nc(C)c(Cl)c3C)C2SC1` (centres undefined), for which the cell number change was -0.215%. In the case of `Cn1c(=O)n(Cc2ccccc2Cl)c2ccccc21`, the cell number change was determined as 43.4%. Further, the AC50 under setting [2] is 32.6 µM [rising, partial curve, poor fit]. The half-maximal activity concentration (AC50) under setting [1] is 6.51 µM [rising, single point]. For `O=C(OCc1nc2ccsc2c(=O)[nH]1)c1ccc(Cl)s1`, the cell number change was -3.68%. The AC50 under setting [1] is 1.3 µM [falling, full curve]. As for `CC(=O)Nc1nc2ccc(C(=O)NCCOC(=O)C3CCCCC3)cc2s1`, the cell number change is -40.9%. Moreover, the AC50 under setting [2] was 29.1 µM [falling, single point]. Besides, the AC50 under setting [1] was 29.1 µM [falling, partial curve, poor fit].

With `CCN(C(=O)c1cc2cc(OC)ccc2oc1=O)c1cccc(C)c1`, the cell number change turned out to be 2.07%. Take `CCn1c(=O)n(CC)c2cc(N3CCCC3)c(NC(=O)c3ccccc3F)cc21`: the AC50 under setting [1] was 0.82 µM [falling, single point]. As for `COc1ccc(/C=N/NC(=O)CCc2c(C)n[nH]c2C)cc1O`, the cell number change came to 0.233%. Regarding `O=C(Cc1ccccc1)NCC(=O)N1CCCCCC1`, the AC50 under setting [1] is 0.0259 µM [rising, full curve, poor fit]. As for `CN1C(=O)/C(=C/c2cn(CC(=O)NCc3ccco3)c3ccccc23)NC1=S`, the cell number change was -1.08%. Besides, under setting [1], the AC50 is 13 µM [falling, partial curve]. As to `COc1cccc(CNC(=O)C(=O)NCCC2CCCCN2S(=O)(=O)c2ccc(C)cc2)c1` (centres undefined), the cell number change is -20%. Turning to `CNC(=O)c1c(NC(=O)c2ccc(S(=O)(=O)N3CC(C)OC(C)C3)cc2)sc2c1CCN(C(C)C)C2` (centres undefined), the cell number change is -44.2%. The AC50 under setting [2] was 11.6 µM [falling, partial curve]. Also, under setting [1], the AC50 was 7.31 µM [falling, partial curve]. `CN(C)c1ccc(-n2cc3c(=O)n(C)c(=O)n(C)c3c2)cc1`: the cell number change was -25.1%. The AC50 under setting [1] was 0.651 µM [rising, single point]. As to `O=C(NCc1cccs1)c1ccc(Cl)s1`, the cell number change came to 38.7%. Under setting [2], the AC50 was 14.6 µM [rising, single point]. Regarding `CC1=Nc2ccc(Br)cc2C(c2ccccc2)N1CC(=O)NN` (centres undefined), the AC50 was 1.46 µM [falling, partial curve] under setting [2] and 0.58 µM [falling, single point] under setting [1]. Regarding `CCCSC1=C(C#N)C(c2ccccc2C)C(C(=O)OC)C(=O)N1` (centres undefined), the cell number change was -30.1%. Also, under setting [2], the AC50 was 1.16 µM [falling, full curve, poor fit].

`C=CCOC(=O)c1[nH]c2c(c1C)C(=O)CC(c1cc(OC)c(OC)c(OC)c1)C2` (centres undefined): the cell number change was -2.56%.

Regarding `COc1ccc(CCOC(=O)c2ccc(NC(=O)CC#N)cc2)cc1`, the cell number change was 32.3%. Further, under setting [2], the AC50 is 32.6 µM [rising, single point]. Turning to `C=CCOC(=O)C1=C(C)Nc2[nH]c(=O)[nH]c(=O)c2C1c1ccccc1` (centres undefined), the cell number change was -42.8%. For the same compound, the AC50 under setting [2] is 29.1 µM [falling, single point]. Also, under setting [1], the concentration at half-maximal activity (AC50) is 29.1 µM [falling, single point]. For `CNC(=O)COC(=O)c1ccc2c(c1)NC(=O)C1CCCN21` (centres undefined), the cell number change amounted to 15.8%. Moreover, the half-maximal activity concentration (AC50) under setting [1] was 0.116 µM [rising, single point]. As to `CCOc1ccc(N(Cc2cc3ccc(C)cc3[nH]c2=O)S(=O)(=O)c2ccccc2)cc1`, the cell number change was -3.06%. The concentration at half-maximal activity (AC50) under setting [1] is 3.26 µM [falling, partial curve]. `Cc1cc2nc(N3CCN(C(=O)c4cccs4)CC3)sc2cc1C`: the cell number change came out at 35.7%. Under setting [2], the AC50 is 1.84 µM [rising, full curve]. In the case of `CCOC(=O)c1sc(NC(C)=O)cc1C`, the cell number change came out at 137%. The AC50 under setting [2] was 10.3 µM [rising, partial curve]. Also, under setting [1], the AC50 was 2.91 µM [rising, partial curve]. On to `CCn1c(/C=C/c2ccc(O)c(O)c2)nc2ccccc2c1=O`, for which the cell number change is -42.9%. Further, the AC50 under setting [2] was 23.1 µM [falling, single point].

On to `CCc1c(C)nc2nc(NC(C)=O)[nH]n2c1=O`, for which the cell number change was -24.6%. In addition, under setting [1], the AC50 is 16.4 µM [falling, partial curve, poor fit]. With `COc1cc(C)c(C(C)C)cc1S(=O)(=O)NC1CC(C)(C)NC(C)(C)C1`, the cell number change was 21.4%. In addition, under setting [1], the AC50 was 29.1 µM [rising, single point].

As to `Cc1nn(C(C)CC(=O)O)c(C)c1C` (centres undefined), under setting [1], the AC50 is 0.517 µM [falling, full curve]. `COc1cc(/C=C/C(=O)OCC(=O)NCc2cccs2)ccc1OCC#N`: the cell number change was -15.7%. Consider `COc1cccc(NC(=O)N2CCCC2C(=O)NCC(C)C)c1` (centres undefined), for which the cell number change is -12.6%. Further, the AC50 under setting [1] is 0.651 µM [falling, full curve].

Turning to `O=S1(=O)CCC(NS(=O)(=O)c2ccc3ccccc3c2)C1` (centres undefined), the cell number change was -14.5%. In addition, under setting [1], the AC50 is 5.62 µM [rising, single point].

Consider `COc1ccc(OC)c(S(=O)(=O)N2CCC(C(=O)NCc3ccccn3)CC2)c1`, for which the cell number change stood at 18.9%.

Consider `CCOC(=O)N1CCN(C(=O)/C(=C/c2ccc(F)cc2)NC(=O)c2ccccc2)CC1`, for which the cell number change is -6.35%. Under setting [1], the AC50 is 29.1 µM [falling, single point].

`Cc1cc(NC(=O)CN2CCN(S(=O)(=O)c3ccc4ccccc4c3)CC2)no1`: the cell number change was 34.7%. Further, the AC50 under setting [2] is 29.1 µM [rising, single point]. Also, the half-maximal activity concentration (AC50) under setting [1] is 0.116 µM [rising, full curve, poor fit].

What is called AC50 is the midpoint of the concentration-response curve, whichever way the signal moves. A high value points to activity only at high concentration.
